Reference: PubChem BioAssay AID2685 (National Center for Advancing Translational Sciences (NCATS), 2010)
The list shows a part of the results. These are further read-outs of the screen, such as a control signal, another cell line or another target. No call is given for them. The list favours compounds with an active or inconclusive main result. Potencies come from curve fits of mixed quality, noted in brackets.

Assay: qHTS Assay for Lipid Storage Modulators in Drosophila S3 Cells;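 on cell number change: cells counted by Cell Tracker Red CMTPX staining in the red channel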
Settings: BODIPY lipid droplet fluorescence, 18-24 h; for cell number change: measured here: cell count max response, cells fed with added oleic acid
Method in brief: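 Drosophila S3 cells loaded with oleic acid (400 uM, as added) and compounds at several concentrations; lipid droplets imaged by 488-nm laser-scanning cytometry, 500–530 nm intensity and object ratio to cell channel. Percent activity normalized to 20 uM Triacsin C.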

[1] = measured here: lipid fluorescence (Fed channel) AC50, cells fed with added oleic acid
[2] = measured here: cell number channel AC50, cells fed with added oleic acid

Structure (SMILES) | cell number change [%] | AC50 [1] | AC50 [2]
O=S(=O)(NC1c2cccc3cccc(c23)C1N1CCN(CCO)CC1)c1ccccc1 (stereo not given) | -15.7 | 6.51 µM [falling, single point] | –
Cc1ccccc1C(=O)Nc1ccccc1-n1cccc1 | 3.52 | – | –
CCOn1c(=O)c(-c2ccc(Br)cc2)[n+]([O-])c2ccccc21 | 17.7 | 32.6 µM [rising, single point] | –
COC(=O)c1ccc(-c2noc(CN(C)CCC3CCCCO3)n2)cc1 (stereo not given) | -23.7 | 29.1 µM [falling, single point] | 4.11 µM [falling, full curve, poor fit]
CC(C)[C@H](NC(=O)c1ccccc1)C(=O)NCCc1ccccc1 | 0.435 | – | –
COc1cccc(Oc2nc(-c3ccncc3)nc3ccccc23)c1 | -35.3 | – | –
CC(=O)Nc1ccccc1NC(=O)c1cccc2ccccc12 | 7.33 | 2.06 µM [rising, partial curve, poor fit] | –
COc1ccc(C2=NOC(C(=O)NCc3ccccn3)C2)cc1OC (stereo not given) | 73 | – | 25.9 µM [rising, single point]
COC(=O)C1=C(C)N(Cc2ccc(C)cc2)C(=O)/C1=C\c1ccc(O)c(OC)c1 | -20 | 0.00651 µM [falling, full curve, poor fit] | –
COc1ccc(NC(=O)Cc2csc(NC(=O)Nc3ccccc3OC)n2)c(OC)c1 | – | 0.82 µM [rising, full curve] | 1.64 µM [rising, partial curve]
CCC(C)(C)NC(=O)C(c1cccs1)N(C(=O)c1ccn[nH]1)c1ccccc1 (stereo not given) | 30.1 | – | 25.9 µM [rising, single point]
O=C(CCNc1ccccc1)c1ccc2c(c1)OCO2 | -11.9 | 2.06 µM [rising, partial curve] | –
COc1ccc2c(c1)cc(C(=O)N[C@H](C(=O)N1CCC(C(=O)O)CC1)C(C)C)n2C | -0.236 | 18.4 µM [rising, single point] | –
COc1ccc(NC(=S)NCCNC(C)=O)cc1 | -38.9 | – | 20 µM [falling, single point]
Cc1ccc(S(=O)(=O)NCCSc2nnnn2-c2cc(C)ccc2C)cc1 | -8.71 | 4.11 µM [rising, partial curve] | –
Cc1[nH]c2ccccc2c1C(=O)C(=O)N1CC(C)OC(C)C1 (stereo not given) | 25.6 | – | –
COc1cc(N2C(=O)CSC2=S)cc(OC)c1OC | -5.56 | – | –
CC(C)NC(=O)COC(=O)Cn1[nH]c(=O)c2ccccc2c1=O | -1.98 | 16.4 µM [falling, partial curve] | 0.0517 µM [falling, full curve, poor fit]
O=C(Cc1cccs1)N1CCN(S(=O)(=O)c2ccc(Br)cc2)CC1 | 30.6 | 5.8 µM [falling, full curve] | 14.6 µM [rising, partial curve, poor fit]
COc1cc(OC)c(C(=O)OCC(=O)NCC2CCCCC2)cc1OC | – | 4.11 µM [rising, partial curve] | –

Looked up above:
Under AC50 [2], COc1ccc(NC(=O)Cc2csc(NC(=O)Nc3ccccc3OC)n2)c(OC)c1 has the entry 1.64 µM [rising, partial curve]
Under AC50 [2], O=C(Cc1cccs1)N1CCN(S(=O)(=O)c2ccc(Br)cc2)CC1 has the entry 14.6 µM [rising, partial curve, poor fit]
Under AC50 [1], COC(=O)C1=C(C)N(Cc2ccc(C)cc2)C(=O)/C1=C\c1ccc(O)c(OC)c1 has the entry 0.00651 µM [falling, full curve, poor fit]
Under AC50 [2], CC(C)NC(=O)COC(=O)Cn1[nH]c(=O)c2ccccc2c1=O has the entry 0.0517 µM [falling, full curve, poor fit]
Under cell number change [%], CCC(C)(C)NC(=O)C(c1cccs1)N(C(=O)c1ccn[nH]1)c1ccccc1 (stereo not given) has the entry 30.1

Carrying on:

Structure (SMILES) | cell number change [%] | AC50 [1] | AC50 [2]
CS(=O)(=O)NNC(=O)c1cc2cc3ccccc3nc2s1 | 20 | 3.66 µM [rising, full curve] | –
COc1ccccc1-c1ccc(SCc2cccc(F)c2)nn1 | 96 | – | 18.4 µM [rising, partial curve]
CC12CCC(=O)N1C(C(=O)Nc1ccccc1N1CCCCC1)CS2 (stereo not given) | -4.95 | 0.184 µM [falling, full curve, poor fit] | –
Cc1ccc(CNCC2CCCO2)s1 (stereo not given) | – | 1.03 µM [rising, partial curve] | 1.84 µM [rising, partial curve]
CCc1cc2c(=O)[nH]c(Cc3ccc(OC)cc3)nc2s1 | -2.36 | 0.13 µM [rising, partial curve, poor fit] | –
Cn1c(=O)oc2cc(S(=O)(=O)NCCC(=O)N3CCN(c4ccccc4)CC3)ccc21 | -4.25 | 6.51 µM [rising, single point] | –
O=C(O)c1cccc2c1C(=O)c1ccc(-c3ccc(F)cc3OCc3ccccc3)cc1S2(=O)=O | -33.1 | 0.116 µM [falling, single point] | 20.6 µM [falling, single point]
Cc1cc(OC(C)C)nc(-c2ccccc2O)n1 | – | 0.116 µM [falling, full curve, poor fit] | 6.51 µM [rising, single point]
O=C(COC(=O)C1=COCCO1)Nc1ccc(F)c(F)c1 | 0.245 | 25.9 µM [falling, partial curve, poor fit] | –
O=C(CSc1nnc2ccccn12)NC(=O)c1ccccc1 | -32.4 | 1.46 µM [falling, full curve] | 1.3 µM [falling, full curve]
Cc1ccccc1NC(=O)Nc1nnc(CC(=O)NCc2ccccc2)s1 | 13.5 | 1.03 µM [falling, full curve, poor fit] | 6.51 µM [rising, single point]
Cc1ccc(Cn2ccc(NC(=O)c3cc(-c4ccc(F)cc4)on3)n2)cc1 | -30.5 | – | 29.1 µM [falling, single point]
Cc1cc(C=O)c(C)n1-c1ccc(Cl)c(C(=O)O)c1 | -15.7 | 0.058 µM [falling, single point] | –
COCC(=O)NNC(=S)Nc1cccc(C)c1C | -7.02 | 0.517 µM [falling, full curve] | 0.082 µM [falling, full curve]
CC(C)(C)c1ccc(OCCC(=O)OCC(=O)NCc2ccccc2)cc1 | -41.2 | 23.1 µM [falling, single point] | 29.1 µM [falling, single point]
N#CC1=C2SCN(Cc3ccccc3)CN2C(=O)CC1c1cccs1 (stereo not given) | 19 | 0.651 µM [falling, full curve] | –
C=CCNC(=O)CN(Cc1ccccc1)S(=O)(=O)c1ccc(C)cc1 | – | 20.6 µM [falling, partial curve] | –
CC(C)(C)C1(O)CC(C(F)(F)F)=NN1C(=O)Cc1ccc([N+](=O)[O-])cc1 (stereo not given) | -49.7 | 23.1 µM [falling, single point] | 20.6 µM [falling, single point]
CCSc1cc(N2CCCC2)nc(-c2ccc(C)cc2)n1 | 4.73 | 4.61 µM [rising, full curve, poor fit] | –
CCCOc1ccc(-c2nnn(CC(=O)N3CCC(C)CC3)n2)cc1 | 58.5 | 0.164 µM [rising, full curve] | 2.91 µM [rising, partial curve]

Structure (SMILES) | cell number change [%] | AC50 [1] | AC50 [2]
CCCc1cc(=O)[nH]c(SCC(=O)c2cc(C)n(-c3cc(C)on3)c2C)n1 | 9.62 | – | –
CCOc1ccc2nc(NCCO)[nH]c2c1 | -11.9 | 2.91 µM [falling, partial curve, poor fit] | 7.31 µM [falling, partial curve, poor fit]
O=C(CCCN=C1NS(=O)(=O)c2ccccc21)OCC(=O)c1ccc(F)c(F)c1 | -18.2 | – | 1.64 µM [falling, full curve, poor fit]
Cc1cc(C)c(C)c(OCCn2ccnc2)c1 | -17.7 | – | –
COCCOC(=O)C1=C(C)NC(=O)N(C(C)=O)C1c1ccc(Cl)cc1 (stereo not given) | 30.2 | – | –
Cc1ccc(C)c(N2CCN(CCCNC(=O)Cn3c(=O)c4cccn4c4cccnc43)CC2)c1 | -0.612 | 18.4 µM [rising, partial curve] | –
O=C(O)C1CC(=O)N(Cc2cccs2)C1 (stereo not given) | -22.5 | – | –
N#Cc1c(NC(=O)C2CC(Cl)=CCC2C(=O)O)sc2c1CCCC2 (stereo not given) | 2.03 | 0.366 µM [falling, single point] | 0.58 µM [falling, single point]
COc1cccc(/C=N\NC(=O)c2ccc(Cn3cc(Br)c([N+](=O)[O-])n3)o2)c1O | -41 | 20.6 µM [falling, partial curve, poor fit] | 29.1 µM [falling, partial curve]
N#CC1=C(N)N(c2ccc(Oc3ccccc3)cc2)C(=O)C1 | 48.9 | 2.31 µM [rising, full curve] | 8.2 µM [rising, single point]
CCN(c1ccc(C)c(C)c1)S(=O)(=O)c1ccc2c(c1)CCN2C(=O)CCC(=O)O | 1.54 | – | 2.91 µM [falling, partial curve, poor fit]
COc1ccc(CCNC(=O)c2ccc(-c3ccc([N+](=O)[O-])cc3Cl)o2)cc1OC | 14.3 | 20.6 µM [falling, partial curve] | –
O=C(Nc1ccccc1Cl)c1cc[n+](Cc2ccc([N+](=O)[O-])cc2)cc1 | -5.97 | 0.00731 µM [falling, full curve, poor fit] | –
CCC(=O)Nc1nc(C)cc(SCC(=O)OC)n1 | 15.8 | 23.1 µM [falling, partial curve] | –
CCC(=O)N1CCN=C1SCc1cccc(C(F)(F)F)c1 | 0.59 | – | –
CCC(=O)c1cccc2c1N=CC1=C(CC(C)(C)CC1=O)N2 | 9.53 | 0.164 µM [rising, partial curve, poor fit] | –
Cn1c(/C(C#N)=C/c2ccncc2)nc2ccccc21 | -8.05 | 0.0058 µM [falling, full curve, poor fit] | –
Cc1ccc(S(=O)(=O)CCC(=O)NCc2ccccc2Cl)cc1 | -13.9 | – | –
COC(=O)C(CCSC)NS(=O)(=O)c1ccc(Cl)cc1 (stereo not given) | 31 | 29.1 µM [rising, single point] | 29.1 µM [rising, single point]
